# From PMC5291280
# Amino acid sequences for entries named in this document (tags omitted).
# UniProt Q8ND56: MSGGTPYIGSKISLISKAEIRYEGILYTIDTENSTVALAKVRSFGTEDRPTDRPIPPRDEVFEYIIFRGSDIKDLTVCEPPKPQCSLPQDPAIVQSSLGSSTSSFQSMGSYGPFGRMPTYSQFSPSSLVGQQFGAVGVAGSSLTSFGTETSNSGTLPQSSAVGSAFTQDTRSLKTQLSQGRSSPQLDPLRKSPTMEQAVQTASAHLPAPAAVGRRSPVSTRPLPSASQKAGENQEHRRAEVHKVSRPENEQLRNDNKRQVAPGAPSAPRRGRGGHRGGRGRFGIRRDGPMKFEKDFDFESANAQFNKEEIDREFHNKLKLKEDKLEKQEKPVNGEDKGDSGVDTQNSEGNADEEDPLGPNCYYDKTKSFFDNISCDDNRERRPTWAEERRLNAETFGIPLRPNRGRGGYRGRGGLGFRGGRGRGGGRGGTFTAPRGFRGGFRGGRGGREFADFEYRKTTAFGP
# UniProt P06730: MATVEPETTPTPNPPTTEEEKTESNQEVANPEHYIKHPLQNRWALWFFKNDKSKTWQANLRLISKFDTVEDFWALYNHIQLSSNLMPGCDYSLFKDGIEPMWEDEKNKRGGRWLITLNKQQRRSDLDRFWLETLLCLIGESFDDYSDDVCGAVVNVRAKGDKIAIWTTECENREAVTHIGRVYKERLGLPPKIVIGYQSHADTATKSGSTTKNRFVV
# UniProt O60573: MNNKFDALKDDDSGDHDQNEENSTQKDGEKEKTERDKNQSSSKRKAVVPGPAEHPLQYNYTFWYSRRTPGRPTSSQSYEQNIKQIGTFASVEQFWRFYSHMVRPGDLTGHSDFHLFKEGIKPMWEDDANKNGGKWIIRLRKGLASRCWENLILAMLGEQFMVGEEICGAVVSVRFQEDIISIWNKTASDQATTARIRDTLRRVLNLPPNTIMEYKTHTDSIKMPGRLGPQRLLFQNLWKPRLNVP
# No constants are given. Whether binding was seen depends on the method and setting. Binding seen in cells or lysates may run through a third protein. Some entries that bind do so weakly or less than the wild type. Where a sequence is shown, tags or fusion partners need not be part of it.
# T1: FLAG-4E-T (4E-Transporter, full length) (human) (UniProt Q9NRA8)
# T1 sequence: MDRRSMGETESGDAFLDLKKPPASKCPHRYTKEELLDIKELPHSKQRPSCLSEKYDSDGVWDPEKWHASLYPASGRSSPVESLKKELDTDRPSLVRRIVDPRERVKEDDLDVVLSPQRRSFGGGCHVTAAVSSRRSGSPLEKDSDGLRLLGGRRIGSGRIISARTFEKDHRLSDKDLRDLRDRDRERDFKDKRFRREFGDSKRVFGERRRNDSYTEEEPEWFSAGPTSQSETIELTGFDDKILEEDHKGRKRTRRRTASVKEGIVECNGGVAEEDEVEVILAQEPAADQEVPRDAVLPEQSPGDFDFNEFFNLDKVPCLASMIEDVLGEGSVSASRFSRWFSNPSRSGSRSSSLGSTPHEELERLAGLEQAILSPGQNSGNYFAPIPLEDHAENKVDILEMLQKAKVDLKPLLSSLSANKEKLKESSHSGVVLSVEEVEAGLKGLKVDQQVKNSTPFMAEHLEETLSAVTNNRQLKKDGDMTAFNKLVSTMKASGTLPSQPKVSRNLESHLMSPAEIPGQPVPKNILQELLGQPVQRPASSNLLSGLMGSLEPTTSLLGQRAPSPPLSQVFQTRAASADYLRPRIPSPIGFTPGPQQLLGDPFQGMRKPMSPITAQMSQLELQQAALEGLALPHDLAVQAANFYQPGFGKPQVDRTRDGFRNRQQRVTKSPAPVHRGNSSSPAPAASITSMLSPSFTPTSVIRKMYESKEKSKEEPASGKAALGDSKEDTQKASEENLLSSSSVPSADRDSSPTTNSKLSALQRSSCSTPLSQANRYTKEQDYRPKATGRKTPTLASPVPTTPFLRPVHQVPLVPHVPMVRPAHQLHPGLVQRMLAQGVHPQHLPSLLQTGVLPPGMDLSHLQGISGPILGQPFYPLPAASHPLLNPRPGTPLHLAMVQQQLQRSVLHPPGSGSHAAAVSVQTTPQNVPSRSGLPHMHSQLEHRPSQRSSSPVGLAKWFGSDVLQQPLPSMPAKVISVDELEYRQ
# T2: FLAG-4E-TΔCHD 1-694 (human) (UniProt Q9NRA8)
# T2 sequence: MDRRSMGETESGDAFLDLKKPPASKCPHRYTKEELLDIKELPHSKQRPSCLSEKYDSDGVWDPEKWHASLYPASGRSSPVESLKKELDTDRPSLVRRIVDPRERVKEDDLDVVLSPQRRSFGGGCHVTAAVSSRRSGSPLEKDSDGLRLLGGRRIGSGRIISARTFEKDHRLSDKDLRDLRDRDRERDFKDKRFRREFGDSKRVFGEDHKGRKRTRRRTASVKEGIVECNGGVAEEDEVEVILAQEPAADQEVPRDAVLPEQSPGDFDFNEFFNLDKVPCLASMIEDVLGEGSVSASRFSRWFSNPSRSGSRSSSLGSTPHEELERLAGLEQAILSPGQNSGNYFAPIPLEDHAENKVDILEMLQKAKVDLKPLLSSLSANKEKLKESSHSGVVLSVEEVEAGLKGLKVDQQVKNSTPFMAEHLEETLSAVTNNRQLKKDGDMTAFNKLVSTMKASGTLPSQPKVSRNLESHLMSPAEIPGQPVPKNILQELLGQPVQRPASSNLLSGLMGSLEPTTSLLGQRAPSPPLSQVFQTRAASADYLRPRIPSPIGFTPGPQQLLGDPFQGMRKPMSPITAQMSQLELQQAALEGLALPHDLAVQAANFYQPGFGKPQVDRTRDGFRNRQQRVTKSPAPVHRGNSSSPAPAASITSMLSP
# T3: FLAG-4E-TΔIII (human) (UniProt Q9NRA8)
# T3 sequence: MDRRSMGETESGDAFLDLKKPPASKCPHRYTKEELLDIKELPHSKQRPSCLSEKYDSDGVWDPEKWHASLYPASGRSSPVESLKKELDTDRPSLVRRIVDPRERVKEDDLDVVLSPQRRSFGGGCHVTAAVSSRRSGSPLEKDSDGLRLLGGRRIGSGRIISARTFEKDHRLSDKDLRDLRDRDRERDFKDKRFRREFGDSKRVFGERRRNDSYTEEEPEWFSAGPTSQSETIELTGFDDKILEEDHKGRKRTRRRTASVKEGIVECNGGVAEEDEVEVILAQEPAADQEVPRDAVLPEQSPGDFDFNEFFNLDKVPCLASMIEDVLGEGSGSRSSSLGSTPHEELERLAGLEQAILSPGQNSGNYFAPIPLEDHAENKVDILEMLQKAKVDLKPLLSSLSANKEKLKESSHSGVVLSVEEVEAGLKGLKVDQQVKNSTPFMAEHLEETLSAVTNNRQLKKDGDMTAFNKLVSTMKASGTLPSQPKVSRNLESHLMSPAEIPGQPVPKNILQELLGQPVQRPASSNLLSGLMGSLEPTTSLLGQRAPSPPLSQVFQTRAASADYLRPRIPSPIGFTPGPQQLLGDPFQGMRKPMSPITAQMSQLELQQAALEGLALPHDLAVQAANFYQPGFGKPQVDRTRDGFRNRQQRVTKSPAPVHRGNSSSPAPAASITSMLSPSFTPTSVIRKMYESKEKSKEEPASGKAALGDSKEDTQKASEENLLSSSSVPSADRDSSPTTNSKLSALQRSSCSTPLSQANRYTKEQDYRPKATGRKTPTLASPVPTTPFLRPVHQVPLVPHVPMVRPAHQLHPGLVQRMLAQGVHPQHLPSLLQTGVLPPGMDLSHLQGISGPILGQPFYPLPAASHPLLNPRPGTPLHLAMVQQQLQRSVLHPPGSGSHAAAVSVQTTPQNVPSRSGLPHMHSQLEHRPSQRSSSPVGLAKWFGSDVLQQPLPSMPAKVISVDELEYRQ
# How the values were obtained:
# Test in all cases: co-IP; anti-FLAG M2 beads on lysates of transfected HEK293T cells, eluted with SDS loading buffer, western blot; lysates with or without RNase A (40 μg/ml); in some panels cells also given siRNA against β-globin, DDX6, UNR or unrip, or co-transfected with HA-DDX6
# [1] = molecular target: T1, FLAG-4E-T (4E-Transporter, full length) (human)
# [2] = molecular target: T2, FLAG-4E-TΔCHD 1-694 (human)
# FLAG-4E-TΔIII (human) = molecular target: T3, FLAG-4E-TΔIII (human)
binding [1],binding [2],binding (FLAG-4E-TΔIII (human)),Molecule
binds,binds,binds,"LSM14A, endogenous (from UniProt Q8ND56 1-463)"
binds,binds,binds,"eIF4E1, endogenous (from UniProt P06730 1-217)"
binds,–,binds,"eIF4E2, endogenous (from UniProt O60573 1-245)"
binds,no binding,binds,"PAT1B, endogenous (protein, UniProt Q86TB9 1-770) MFRYESLEDCPLDEDEDAFQGLGEEDEEIDQFNDDTFGSGAVDDDWQEAHERLAELEEKLPVAVNEQTGNGERDEMDLLGDHEENLAERLSKMVIENELEDPAIMRAVQTRPVLQPQPGSLNSSIWDGSEVLRRIRGPLLAQEMPTVSVLEYALPQRPPQGPEDDRDLSERALPRRSTSPIIGSPPVRAVPIGTPPKQMAVPSFTQQILCPKPVHVRPPMPPRYPAPYGERMSPNQLCSVPNSSLLGHPFPPSVPPVLSPLQRAQLLGGAQLQPGRMSPSQFARVPGFVGSPLAAMNPKLLQGRVGQMLPPAPGFRAFFSAPPSATPPPQQHPPGPGPHLQNLRSQAPMFRPDTTHLHPQHRRLLHQRQQQNRSQHRNLNGAGDRGSHRSSHQDHLRKDPYANLMLQREKDWVSKIQMMQLQSTDPYLDDFYYQNYFEKLEKLSAAEEIQGDGPKKERTKLITPQVAKLEHAYKPVQFEGSLGKLTVSSVNNPRKMIDAVVTSRSEDDETKEKQVRDKRRKTLVIIEKTYSLLLDVEDYERRYLLSLEEERPALMDDRKHKICSMYDNLRGKLPGQERPSDDHFVQIMCIRKGKRMVARILPFLSTEQAADILMTTARNLPFLIKKDAQDEVLPCLLSPFSLLLYHLPSVSITSLLRQLMNLPQSAATPALSNPHLTAVLQNKFGLSLLLILLSRGEDLQSSDPATESTQNNQWTEVMFMATRELLRIPQAALAKPISIPTNLVSLFSRYVDRQKLNLLETKLQLVQGIR"
binds,–,binds,"CNOT4, endogenous (protein, UniProt O95628 1-575) MSRSPDAKEDPVECPLCMEPLEIDDINFFPCTCGYQICRFCWHRIRTDENGLCPACRKPYPEDPAVYKPLSQEELQRIKNEKKQKQNERKQKISENRKHLASVRVVQKNLVFVVGLSQRLADPEVLKRPEYFGKFGKIHKVVINNSTSYAGSQGPSASAYVTYIRSEDALRAIQCVNNVVVDGRTLKASLGTTKYCSYFLKNMQCPKPDCMYLHELGDEAASFTKEEMQAGKHQEYEQKLLQELYKLNPNFLQLSTGSVDKNKNKVTPLQRYDTPIDKPSDSLSIGNGDNSQQISNSDTPSPPPGLSKSNPVIPISSSNHSARSPFEGAVTESQSLFSDNFRHPNPIPSGLPPFPSSPQTSSDWPTAPEPQSLFTSETIPVSSSTDWQAAFGFGSSKQPEDDLGFDPFDVTRKALADLIEKELSVQDQPSLSPTSLQNSSSHTTTAKGPGSGFLHPAAATNANSLNSTFSVLPQRFPQFQQHRAVYNSFSFPGQAARYPWMAFPRNSIMHLNHTANPTSNSNFLDLNLPPQHNTGLGGIPVAGEEEVKVSTMPLSTSSHSLQQGQQPTSLHTTVA"
